Measured values taken from US6548282B2, “Phytase and gene encoding said phytase” (priority 1996, dated 2003).
Some entries share one result that the patent states for a list of compounds.

Experiments:
Temperature stability = assay type: physicochemical; conditions: temperature of 30° C. or lower; 2.1 mg/ml, 60 minutes, pH 5.5
pH stability = assay type: physicochemical; conditions: pH 4.5 to pH 7.5; 2.1 mg/ml, 37° C., 60 minutes, 100 mM buffer

B1: novel phytase from Aspergillus niger SK57: Phytase purified from wheat bran culture of Aspergillus niger SK57 (FERM BP-5473); amino acid sequence SEQ ID NO:1 (protein)
chain: SRNQSTCDTVDQGYQCFSETSHLWGQYAPFFSLANKSAISPDVPAGCHVTFAQVLSRHGARYPTDSKGKKYSALIEEIQQNATTFEGKYAFLKTYNYSLGADDLTPFGEQELVNSGVKFYQRYESLTRNIVPFIRSSGSSRVIASGNKFIEGFQSTKLKDPRAQPGQSSPKIDVVISEASTSNNTLDPGTCTVFEDSELADDIEANFTATFVPSIRQRLENDLSGVSLTDTEVTYLMDMCSFDTISTSTVDTKLSPFCDLFTHEEWINYDYLQSLNKYYGHGAGNPLGPTQGVGYANELIARLTHSPVHDDTSSNHTLDSNPATFPLNSTLYADFSHDNGIISILFALGLYNGTKPLSSTTAENITQTDGFSSAWTVPFASRMYVEMMQCQSEQEPLVRVLVNDRVVPLHGCPVDALGRCTRDSFVKGLSFARSGGDWGECFA
Temperature stability
  relative activity (to activity at 4° C. as 100%): ≥ 70%
pH stability
  residual activity: ≥ 60%
